For 3 molecules, binding results are on record in PMC3842841, “VacA, the vacuolating cytotoxin of Helicobacter pylori, binds to multimerin 1 on human platelets” (Thrombosis Journal, 2013).

The chains behind the UniProt entries cited, without tags or fusion partners. Where a name states a change or a piece, a line headed by the entry shows the natural chain unless it says otherwise. Residues count along the entry.
UniProt Q48245: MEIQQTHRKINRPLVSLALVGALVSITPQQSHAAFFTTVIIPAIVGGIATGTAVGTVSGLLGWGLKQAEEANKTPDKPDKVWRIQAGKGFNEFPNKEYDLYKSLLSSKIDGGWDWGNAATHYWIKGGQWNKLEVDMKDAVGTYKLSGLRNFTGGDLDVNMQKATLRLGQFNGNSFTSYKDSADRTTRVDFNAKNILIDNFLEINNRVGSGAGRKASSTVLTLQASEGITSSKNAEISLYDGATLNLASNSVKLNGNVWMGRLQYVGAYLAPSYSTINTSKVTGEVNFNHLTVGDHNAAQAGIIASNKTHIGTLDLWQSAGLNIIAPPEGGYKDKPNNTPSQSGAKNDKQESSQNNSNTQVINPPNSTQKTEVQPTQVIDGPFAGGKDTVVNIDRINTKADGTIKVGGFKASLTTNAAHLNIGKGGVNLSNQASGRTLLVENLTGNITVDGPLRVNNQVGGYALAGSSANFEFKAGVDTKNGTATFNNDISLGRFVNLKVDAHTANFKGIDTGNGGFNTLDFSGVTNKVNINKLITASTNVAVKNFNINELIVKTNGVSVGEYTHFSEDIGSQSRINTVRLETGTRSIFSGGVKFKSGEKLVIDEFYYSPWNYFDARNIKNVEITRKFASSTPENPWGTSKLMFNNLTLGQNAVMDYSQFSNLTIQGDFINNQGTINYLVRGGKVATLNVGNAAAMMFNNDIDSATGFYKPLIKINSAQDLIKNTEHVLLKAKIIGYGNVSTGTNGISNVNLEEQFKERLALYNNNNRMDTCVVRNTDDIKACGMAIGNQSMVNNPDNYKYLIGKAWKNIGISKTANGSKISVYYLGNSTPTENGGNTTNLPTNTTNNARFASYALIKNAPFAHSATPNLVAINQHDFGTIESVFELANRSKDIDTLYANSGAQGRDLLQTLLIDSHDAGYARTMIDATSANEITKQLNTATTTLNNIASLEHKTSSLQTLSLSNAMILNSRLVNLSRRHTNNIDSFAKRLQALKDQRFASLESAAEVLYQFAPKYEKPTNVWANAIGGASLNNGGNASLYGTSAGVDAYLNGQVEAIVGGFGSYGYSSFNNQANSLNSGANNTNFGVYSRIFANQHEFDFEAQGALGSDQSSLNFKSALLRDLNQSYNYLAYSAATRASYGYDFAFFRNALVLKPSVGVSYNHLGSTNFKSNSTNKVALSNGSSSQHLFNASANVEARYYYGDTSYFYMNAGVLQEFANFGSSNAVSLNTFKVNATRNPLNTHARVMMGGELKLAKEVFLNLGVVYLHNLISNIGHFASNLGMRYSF
UniProt P05107, residues 23-769: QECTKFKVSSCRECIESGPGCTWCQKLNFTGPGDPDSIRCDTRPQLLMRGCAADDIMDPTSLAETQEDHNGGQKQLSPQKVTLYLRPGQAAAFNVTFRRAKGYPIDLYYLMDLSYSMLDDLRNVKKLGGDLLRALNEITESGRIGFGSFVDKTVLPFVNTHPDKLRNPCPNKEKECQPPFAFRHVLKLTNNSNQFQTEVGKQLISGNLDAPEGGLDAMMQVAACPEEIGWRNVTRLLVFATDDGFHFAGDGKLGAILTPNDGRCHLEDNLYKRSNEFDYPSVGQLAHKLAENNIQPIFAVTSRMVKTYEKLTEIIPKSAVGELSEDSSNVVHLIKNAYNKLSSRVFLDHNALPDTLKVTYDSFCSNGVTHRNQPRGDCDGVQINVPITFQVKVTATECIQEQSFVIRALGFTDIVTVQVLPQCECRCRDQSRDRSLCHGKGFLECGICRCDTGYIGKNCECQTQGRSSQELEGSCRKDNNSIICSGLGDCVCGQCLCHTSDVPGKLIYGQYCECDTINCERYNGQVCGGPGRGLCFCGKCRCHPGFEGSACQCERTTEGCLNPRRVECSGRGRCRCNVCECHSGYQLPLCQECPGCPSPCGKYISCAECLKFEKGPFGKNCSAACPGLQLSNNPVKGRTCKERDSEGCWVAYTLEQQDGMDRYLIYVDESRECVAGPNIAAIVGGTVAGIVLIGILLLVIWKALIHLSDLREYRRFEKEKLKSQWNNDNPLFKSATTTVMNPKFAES
UniProt P23471, residues 25-2315: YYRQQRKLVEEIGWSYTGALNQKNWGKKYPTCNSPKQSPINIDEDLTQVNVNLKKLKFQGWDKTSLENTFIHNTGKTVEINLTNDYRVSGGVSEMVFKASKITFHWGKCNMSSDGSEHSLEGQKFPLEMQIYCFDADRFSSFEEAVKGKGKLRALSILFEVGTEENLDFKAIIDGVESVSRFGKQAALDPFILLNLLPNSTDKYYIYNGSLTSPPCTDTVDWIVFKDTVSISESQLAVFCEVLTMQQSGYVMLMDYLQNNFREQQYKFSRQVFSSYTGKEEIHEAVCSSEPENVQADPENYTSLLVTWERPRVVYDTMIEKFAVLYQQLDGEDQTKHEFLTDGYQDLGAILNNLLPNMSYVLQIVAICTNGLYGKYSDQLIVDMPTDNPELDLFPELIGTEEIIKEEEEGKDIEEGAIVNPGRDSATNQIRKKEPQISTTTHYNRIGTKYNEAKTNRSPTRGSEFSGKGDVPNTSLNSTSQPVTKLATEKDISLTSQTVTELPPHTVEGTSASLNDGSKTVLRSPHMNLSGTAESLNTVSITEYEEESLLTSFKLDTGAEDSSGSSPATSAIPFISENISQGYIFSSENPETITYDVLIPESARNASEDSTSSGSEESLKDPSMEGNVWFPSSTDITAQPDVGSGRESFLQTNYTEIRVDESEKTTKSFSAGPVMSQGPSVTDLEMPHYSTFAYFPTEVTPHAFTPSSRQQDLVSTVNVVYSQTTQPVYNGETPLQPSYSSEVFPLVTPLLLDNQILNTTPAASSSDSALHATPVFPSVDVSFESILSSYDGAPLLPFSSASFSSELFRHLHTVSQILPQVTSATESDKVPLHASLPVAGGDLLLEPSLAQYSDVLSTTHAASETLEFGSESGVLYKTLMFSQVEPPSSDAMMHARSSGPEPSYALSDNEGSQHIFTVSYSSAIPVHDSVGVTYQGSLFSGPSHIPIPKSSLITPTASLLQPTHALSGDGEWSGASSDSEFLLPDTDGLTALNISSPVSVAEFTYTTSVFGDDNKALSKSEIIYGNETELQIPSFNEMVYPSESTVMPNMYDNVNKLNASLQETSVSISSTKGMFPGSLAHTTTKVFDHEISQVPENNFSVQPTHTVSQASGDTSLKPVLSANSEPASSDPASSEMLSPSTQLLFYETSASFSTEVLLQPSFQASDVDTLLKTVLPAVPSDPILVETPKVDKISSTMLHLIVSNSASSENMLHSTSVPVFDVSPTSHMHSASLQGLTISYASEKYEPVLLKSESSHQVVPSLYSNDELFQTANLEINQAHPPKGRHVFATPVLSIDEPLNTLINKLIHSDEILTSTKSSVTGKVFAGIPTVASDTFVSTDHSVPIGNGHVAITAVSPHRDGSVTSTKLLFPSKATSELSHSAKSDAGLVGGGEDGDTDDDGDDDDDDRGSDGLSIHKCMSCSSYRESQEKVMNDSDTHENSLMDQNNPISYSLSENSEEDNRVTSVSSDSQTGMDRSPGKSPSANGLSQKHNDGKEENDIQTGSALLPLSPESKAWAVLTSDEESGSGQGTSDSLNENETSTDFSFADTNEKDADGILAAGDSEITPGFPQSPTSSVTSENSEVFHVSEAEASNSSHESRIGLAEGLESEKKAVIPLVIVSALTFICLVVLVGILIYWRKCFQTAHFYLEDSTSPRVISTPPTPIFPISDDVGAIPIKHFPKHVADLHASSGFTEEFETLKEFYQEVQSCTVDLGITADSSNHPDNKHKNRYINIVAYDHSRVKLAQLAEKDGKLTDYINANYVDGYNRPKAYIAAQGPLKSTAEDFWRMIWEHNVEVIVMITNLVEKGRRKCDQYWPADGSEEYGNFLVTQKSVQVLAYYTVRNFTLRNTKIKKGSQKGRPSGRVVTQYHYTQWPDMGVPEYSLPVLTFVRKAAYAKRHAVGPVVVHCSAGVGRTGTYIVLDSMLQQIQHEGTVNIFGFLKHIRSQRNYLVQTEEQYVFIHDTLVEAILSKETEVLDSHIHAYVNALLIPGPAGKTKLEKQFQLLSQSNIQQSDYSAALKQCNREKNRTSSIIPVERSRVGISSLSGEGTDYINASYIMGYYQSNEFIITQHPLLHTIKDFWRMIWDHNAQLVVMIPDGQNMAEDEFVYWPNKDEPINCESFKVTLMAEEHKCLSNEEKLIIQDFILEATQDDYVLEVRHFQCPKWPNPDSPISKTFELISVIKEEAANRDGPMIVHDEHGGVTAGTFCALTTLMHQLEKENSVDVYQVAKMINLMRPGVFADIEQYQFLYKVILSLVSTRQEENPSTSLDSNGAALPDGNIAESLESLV

This assay has as its target VacA, the vacuolating cytotoxin of Helicobacter pylori (Helicobacter pylori ATCC49503) (UniProt Q48245). In words: affinity purification with mass spectrometry; only the target purified.

No constants are given. Whether binding was seen depends on the method and setting. Binding seen in cells or lysates may run through a third protein. A yes stands for co-enrichment or nearness to the bait. Other partners may have been found. A no says only that the protein was not detected with the bait.

Turning to “CD18 (from UniProt P05107 23-769) (receptor)”, the binding result was “no binding”. On to “RPTPβ (from UniProt P23471 25-2315) (receptor)”, for which the binding result was “no binding”.

B1: multimerin 1 (protein, UniProt Q13201 20-1228)
chain: LNNSKHSWTIPEDGNSQKTMPSASVPPNKIQSLQILPTTRVMSAEIATTPEARTSEDSLLKSTLPPSETSAPAEGVRNQTLTSTEKAEGVVKLQNLTLPTNASIKFNPGAESVVLSNSTLKFLQSFARKSNEQATSLNTVGGTGGIGGVGGTGGVGNRAPRETYLSRGDSSSSQRTDYQKSNFETTRGKNWCAYVHTRLSPTVILDNQVTYVPGGKGPCGWTGGSCPQRSQKISNPVYRMQHKIVTSLDWRCCPGYSGPKCQLRAQEQQSLIHTNQAESHTAVGRGVAEQQQQQGCGDPEVMQKMTDQVNYQAMKLTLLQKKIDNISLTVNDVRNTYSSLEGKVSEDKSREFQSLLKGLKSKSINVLIRDIVREQFKIFQNDMQETVAQLFKTVSSLSEDLESTRQIIQKVNESVVSIAAQQKFVLVQENRPTLTDIVELRNHIVNVRQEMTLTCEKPIKELEVKQTHLEGALEQEHSRSILYYESLNKTLSKLKEVHEQLLSTEQVSDQKNAPAAESVSNNVTEYMSTLHENIKKQSLMMLQMFEDLHIQESKINNLTVSLEMEKESLRGECEDMLSKCRNDFKFQLKDTEENLHVLNQTLAEVLFPMDNKMDKMSEQLNDLTYDMEILQPLLEQGASLRQTMTYEQPKEAIVIRKKIENLTSAVNSLNFIIKELTKRHNLLRNEVQGRDDALERRINEYALEMEDGLNKTMTIINNAIDFIQDNYALKETLSTIKDNSEIHHKCTSDMETILTFIPQFHRLNDSIQTLVNDNQRYNFVLQVAKTLAGIPRDEKLNQSNFQKMYQMFNETTSQVRKYQQNMSHLEEKLLLTTKISKNFETRLQDIESKVTQTLIPYYISVKKGSVVTNERDQALQLQVLNSRFKALEAKSIHLSINFFSLNKTLHEVLTMCHNASTSVSELNATIPKWIKHSLPDIQLLQKGLTEFVEPIIQIKTQAALSNLTCCIDRSLPGSLANVVKSQKQVKSLPKKINALKKPTVNLTTVLIGRTQRNTDNIIYPEEYSSCSRHPCQNGGTCINGRTSFTCACRHPFTGDNCTIKLVEENALAPDFSKGSYRYAPMVAFFASHTYGMTIPGPILFNNLDVNYGASYTPRTGKFRIPYLGVYVFKYTIESFSAHISGFLVVDGIDKLAFESENINSEIHCDRVLTGDALLELNYGQEVWLRLAKGTIPAKFPPVTTFSGYLLYRT
modifications: biotin (surface labelling of the platelets)
B1: the binding entry was “binds”.
